Measured values as given in PubChem BioAssay AID2685 (National Center for Advancing Translational Sciences (NCATS), 2010).
This is one part of the list. Shown are side measurements of this screen, not its main read-out; they come without a call. Compounds called inactive in the main read-out are mostly missing here. The note in brackets gives the kind of curve behind each potency; many fits are weak.

Assay: qHTS Assay for Lipid Storage Modulators in Drosophila S3 Cells;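 on cell number change: cells counted by Cell Tracker Red CMTPX staining in the red channel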
Settings: BODIPY lipid droplet fluorescence, 18-24 h; for cell number change: measured here: cell count max response, cells fed with added oleic acid
How it was run: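 Laser-scanning cytometry quantifies lipid droplet accumulation (500–530 nm total intensity; droplet/cell object ratio) in oleic acid-fed (400 uM added) Drosophila S3 cells treated with a concentration series. 20 uM Triacsin C defined 100% inhibition.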

[1] = measured here: lipid fluorescence (Fed channel) AC50, cells fed with added oleic acid
[2] = measured here: cell number channel AC50, cells fed with added oleic acid

Compound | cell number change | AC50 [1] | AC50 [2]
CCCCn1c(SCC(=O)N2CCOCC2)nc2ccccc2c1=O | 18.9% | 11.6 µM [falling, single point] | –
COc1ccc(CCN2CC(C(=O)O)CC2=O)cc1OC (configuration not stated) | -7.64% | 0.058 µM [falling, full curve, poor fit] | –
CN(C)C1=NC[C@H](Cc2ccccc2)N1CC1CCCC1 | 24.8% | 0.58 µM [rising, single point] | –
NC(=O)C1CCN(C(=O)CC(c2ccccc2)c2ccccc2)CC1 | 2.65% | 6.51 µM [rising, single point] | –
CSc1ccc(CN2CCCCCC2)cc1 | 8.03% | 0.651 µM [rising, full curve, poor fit] | –
CCOC(=O)[C@H]1[C@H]2COc3ccc(Cl)cc3[C@@H]2N2C(=O)CN(Cc3ccc(Cl)cc3)C(=O)[C@@]12C | 6.08% | – | –
CCOC(=O)c1[nH]c2ccccc2c1NC(C)=O | -4.25% | 29.1 µM [rising, single point] | –
Cc1[nH]c2ccc(-c3n[nH]c(=S)n3Cc3ccccc3)cc2c1C | 5.92% | 0.082 µM [rising, full curve, poor fit] | 0.411 µM [rising, full curve, poor fit]
Cc1ccc(S(=O)(=O)n2nc(OC(=O)c3ccccc3F)cc2N)cc1 | 14.4% | – | –
O=C(NC1CCCCC1)C1CCN(S(=O)(=O)c2cccc3nonc23)CC1 | 148% | 29.1 µM [rising, single point] | 23.1 µM [rising, partial curve]
CCCN(CC(=O)Nc1ccccc1C)C(=O)CCN1C(=O)c2cccc([N+](=O)[O-])c2C1=O | 40.7% | – | 16.4 µM [rising, partial curve, poor fit]
O=C(c1ccccc1)N1CCN(C(=O)N2CCCCC2)CC1 | -2.53% | – | –
COc1cc(C(=O)NNC(=S)NC(=O)c2ccc(Cl)cc2)cc(OC)c1OC | -3.65% | – | –
O=C(CCN1C(=O)/C(=C/c2ccccc2F)SC1=S)N[C@@H](CO)Cc1ccccc1 | -59.7% | – | 23.1 µM [falling, single point]
O=C(Oc1cccnc1)c1cc(S(=O)(=O)N2CCOCC2)ccc1Cl | -50.4% | 4.11 µM [falling, partial curve] | 13 µM [falling, partial curve, poor fit]
CC1=C(C(=O)c2ccccc2)C(c2cn(-c3ccccc3)nc2-c2ccc(Cl)cc2)NC(=S)N1 (configuration not stated) | -74.9% | 2.06 µM [falling, partial curve, poor fit] | 23.1 µM [falling, partial curve]
COC(=O)C1=CO[C@@H](O)C2C(CO)=CCC12 (some centres not stated) | -2.77% | 29.1 µM [rising, single point] | –
COc1ccc2nc(C)cc(NCc3cccc(C(F)(F)F)c3)c2c1 | -30.2% | – | 6.51 µM [falling, partial curve, poor fit]
COc1ccc(-c2n[nH]c3c2CN(C(=O)c2ccc(OC)c(OC)c2)CC3)cc1 | -25.1% | 6.51 µM [rising, single point] | –
O=C(COc1ccc(Cl)cc1)N1CCN(C(=O)c2ccccc2F)CC1 | -6.41% | – | –

Reprinted at random: 2 entries already listed, in no set order.
Compound | cell number change | AC50 [1] | AC50 [2]
O=C(Oc1cccnc1)c1cc(S(=O)(=O)N2CCOCC2)ccc1Cl | -50.4% | 4.11 µM [falling, partial curve] | 13 µM [falling, partial curve, poor fit]
Cc1ccc(S(=O)(=O)n2nc(OC(=O)c3ccccc3F)cc2N)cc1 | 14.4% | – | –

Look-ups from the list.
cell number change, CCOC(=O)[C@H]1[C@H]2COc3ccc(Cl)cc3[C@@H]2N2C(=O)CN(Cc3ccc(Cl)cc3)C(=O)[C@@]12C reads 6.08%
AC50 [2], O=C(CCN1C(=O)/C(=C/c2ccccc2F)SC1=S)N[C@@H](CO)Cc1ccccc1 reads 23.1 µM [falling, single point]

(next part)

Compound | cell number change | AC50 [1] | AC50 [2]
COc1ccc(C(=O)NNC(=O)C(NC(=O)c2ccccc2NC(=O)c2ccco2)C(C)C)cc1 (configuration not stated) | -100% | 1.3 µM [rising, full curve] | 29.1 µM [falling, single point]
O=C(/C=C/c1cccc(Cl)c1)NCCN1CCOCC1 | 13.9% | 0.517 µM [rising, single point] | 0.461 µM [rising, full curve, poor fit]
COc1ccc(C(CNc2ccc(S(=O)(=O)N3CCCC3)cc2[N+](=O)[O-])N2CCCC2)cc1 (configuration not stated) | -16.7% | – | 0.731 µM [falling, single point]
CC1CC(C)CN(C(=O)Cn2nnc(-c3ccccc3)n2)C1 (configuration not stated) | 27.5% | – | –
Cc1cccc(N=N/C(=C\O)C(=O)c2ccc(Br)cc2)c1 | -64.5% | 1.64 µM [rising, partial curve] | 2.06 µM [rising, partial curve]
O=C(CCC(=O)N(CC(=O)NC1CCCC1)Cc1ccccc1)Nc1nccs1 | – | 5.17 µM [falling, full curve, poor fit] | –
Cc1cccc(-c2n[nH]c(=S)n2/N=C/c2ccc(C)o2)c1 | -35.3% | – | 8.2 µM [falling, partial curve, poor fit]
CCOc1ccc(NS(=O)(=O)c2ccc(C(=O)N3CCCCC3)cc2)cc1 | 41.9% | 35.5 µM [falling, single point] | –
O=[N+]([O-])c1cccc2nc(-c3ccccc3)c(-c3ccccc3)nc12 | -26.8% | 0.231 µM [falling, full curve] | –
CC12C=CC3(O1)C(C(=O)N(c1cccnc1)C3C(=O)NC1CCCCC1)C2C(=O)Nc1ccccc1 (configuration not stated) | -3.1% | 0.058 µM [rising, full curve, poor fit] | –
CCOc1cccc(OCCCCN2CCOCC2)c1 | 3.01% | 10.3 µM [rising, partial curve, poor fit] | –
O=C(CCc1ccc(S(=O)(=O)N2CCOCC2)cc1)Nc1ccc2ccccc2c1 | 18.1% | – | 0.0058 µM [rising, full curve, poor fit]
CC1(c2ccncc2)Nc2ccccc2-c2nc3ccccc3n21 (configuration not stated) | 182% | 0.259 µM [rising, partial curve, poor fit] | 0.259 µM [rising, full curve, poor fit]
Cc1nn(CC(=O)Nc2c(C)n(C)n(-c3ccccc3)c2=O)c(C)c1[N+](=O)[O-] | 11.1% | 0.58 µM [rising, single point] | –
O=C(Cc1ccc(Br)cc1)N1CCCCCC1 | -25.1% | 23.1 µM [falling, single point] | 3.26 µM [falling, single point]
O=C(/C=C/c1cn(-c2ccccc2)nc1-c1cccnc1)N1CCCCC1 | -41.1% | 29.1 µM [falling, single point] | –
CC(/C=C/c1ccccc1)=N/NC(=O)c1cc([N+](=O)[O-])cc([N+](=O)[O-])c1 | -8.84% | – | –
COc1ccccc1NS(=O)(=O)c1ccc(OC)c(OC)c1 | 58.5% | 29.1 µM [rising, single point] | 29.1 µM [rising, single point]
COc1ccc(CCNC(=O)c2cnc3scc(C)n3c2=O)cc1OC | -23.1% | 8.2 µM [falling, partial curve, poor fit] | –
N#C/C(=C\c1c(N2CCCCC2)nc2ccccn2c1=O)C(=O)NC1CCS(=O)(=O)C1 (configuration not stated) | 11.7% | 23.1 µM [rising, partial curve] | –

Compound | cell number change | AC50 [1] | AC50 [2]
COC(=O)c1ccsc1NC(=O)CCS(=O)(=O)c1ccccc1 | -5.89% | 0.058 µM [falling, full curve, poor fit] | –
Cc1cc(C)c2nc3sc(C(=O)N4CCOCC4)c(N)c3cc2c1 | 0.292% | – | –
COc1cc(CNCCO)ccc1OCC(=O)Nc1ccc(Br)cc1 | – | 29.1 µM [rising, single point] | –
CCOc1ccc(NC(=O)CSCC(=O)O)cc1 | -28.8% | 1.3 µM [falling, full curve, poor fit] | –
Cc1cccc(N2CCN(C(=O)Cc3ccccc3[N+](=O)[O-])CC2)c1C | -13.7% | 29.1 µM [falling, single point] | –
Cc1cccc(/C=N/NC(=O)c2ccncc2)n1 | 19.4% | 0.0517 µM [falling, full curve, poor fit] | –
CC(C)NCc1c(O)c(Br)cc2oc3c(c12)CCCC3 | -2.67% | 5.8 µM [falling, single point] | 6.51 µM [falling, single point]
CCc1ccc(/C=C2/SC(=S)N(CCC(=O)NCCCN3CCOCC3)C2=O)cc1 | -1.08% | – | –
COc1ccccc1NC(=O)Nc1nnc(CC(=O)Nc2ccccc2C)s1 | 21.5% | – | –
CC(OC(=O)/C=C/c1cccc(Cl)c1)C(=O)NC1CCCCC1C (configuration not stated) | -41.7% | 8.2 µM [falling, partial curve] | 8.2 µM [falling, partial curve]
Cc1ccccc1CNC(=O)C(=O)NCC1CCCN1S(=O)(=O)c1cccs1 (configuration not stated) | -21.5% | 16.4 µM [falling, single point] | –
O=c1[nH]c2ccc(S(=O)(=O)Nc3ccc(Cl)cc3)cc2o1 | 4.91% | 23.1 µM [rising, partial curve] | –
Cc1c(C(=O)NCC2COc3ccccc3O2)oc2ccc(S(=O)(=O)N3CCOCC3)cc12 (configuration not stated) | – | – | 2.59 µM [rising, partial curve, poor fit]
CCc1cc(=O)oc2c(C)c(OC(C)C(=O)NC3CC(C)(C)NC(C)(C)C3)ccc12 (configuration not stated) | 17.1% | 10.3 µM [rising, partial curve, poor fit] | –
O=C(NCCc1ccccc1)Nc1ccc(Cl)cc1 | 14.8% | 0.411 µM [falling, partial curve] | –
COc1ccc(NC(=O)COc2coc(CN3CCCc4ccccc43)cc2=O)cc1 | -54.5% | – | 29.1 µM [falling, single point]
COc1cccc(C(=O)N2CCN(S(=O)(=O)Cc3ccccc3)CC2)c1 | 51.1% | 0.116 µM [rising, single point] | 6.51 µM [rising, partial curve]
CC(=O)C1=C(O)CC(C)(C)CC1=NCCc1nc2ccccc2[nH]1 | -116% | 29.1 µM [falling, single point] | 29.1 µM [falling, single point]
